# Results as given in the supplement of paper PMC12819154, “High-throughput peptide-centric local stability assay extends protein–ligand identification to membrane proteins, tissues and bacteria” (Nature Structural & Molecular Biology, 2025).
# Amino acid sequences for entries named in this document (tags omitted). A change or cut given only in a name is not applied to a line headed by its entry.
# UniProt Q8CI03: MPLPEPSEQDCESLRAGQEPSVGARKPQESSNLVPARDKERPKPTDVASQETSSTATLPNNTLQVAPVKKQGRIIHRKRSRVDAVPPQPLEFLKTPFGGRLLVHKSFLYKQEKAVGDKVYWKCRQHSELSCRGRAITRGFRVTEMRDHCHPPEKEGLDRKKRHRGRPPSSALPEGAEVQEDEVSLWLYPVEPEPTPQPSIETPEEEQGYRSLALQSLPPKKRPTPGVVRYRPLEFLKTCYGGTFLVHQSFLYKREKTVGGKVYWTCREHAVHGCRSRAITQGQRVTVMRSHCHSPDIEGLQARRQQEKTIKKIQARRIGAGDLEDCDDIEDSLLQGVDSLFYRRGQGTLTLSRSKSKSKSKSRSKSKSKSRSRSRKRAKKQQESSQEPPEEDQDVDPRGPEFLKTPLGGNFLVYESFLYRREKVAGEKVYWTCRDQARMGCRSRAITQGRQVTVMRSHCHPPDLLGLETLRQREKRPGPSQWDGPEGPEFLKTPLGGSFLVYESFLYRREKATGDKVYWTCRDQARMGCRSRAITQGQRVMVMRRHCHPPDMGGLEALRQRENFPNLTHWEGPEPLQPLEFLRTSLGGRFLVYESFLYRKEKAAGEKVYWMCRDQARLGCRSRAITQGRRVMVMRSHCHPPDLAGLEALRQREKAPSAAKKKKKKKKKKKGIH
# UniProt Q8CHP5: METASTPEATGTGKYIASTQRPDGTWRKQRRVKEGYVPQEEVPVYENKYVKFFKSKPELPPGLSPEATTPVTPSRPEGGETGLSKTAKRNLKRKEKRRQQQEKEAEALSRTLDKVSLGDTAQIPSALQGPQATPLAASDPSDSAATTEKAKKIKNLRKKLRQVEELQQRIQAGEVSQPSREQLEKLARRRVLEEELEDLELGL
# UniProt Q8CFJ9: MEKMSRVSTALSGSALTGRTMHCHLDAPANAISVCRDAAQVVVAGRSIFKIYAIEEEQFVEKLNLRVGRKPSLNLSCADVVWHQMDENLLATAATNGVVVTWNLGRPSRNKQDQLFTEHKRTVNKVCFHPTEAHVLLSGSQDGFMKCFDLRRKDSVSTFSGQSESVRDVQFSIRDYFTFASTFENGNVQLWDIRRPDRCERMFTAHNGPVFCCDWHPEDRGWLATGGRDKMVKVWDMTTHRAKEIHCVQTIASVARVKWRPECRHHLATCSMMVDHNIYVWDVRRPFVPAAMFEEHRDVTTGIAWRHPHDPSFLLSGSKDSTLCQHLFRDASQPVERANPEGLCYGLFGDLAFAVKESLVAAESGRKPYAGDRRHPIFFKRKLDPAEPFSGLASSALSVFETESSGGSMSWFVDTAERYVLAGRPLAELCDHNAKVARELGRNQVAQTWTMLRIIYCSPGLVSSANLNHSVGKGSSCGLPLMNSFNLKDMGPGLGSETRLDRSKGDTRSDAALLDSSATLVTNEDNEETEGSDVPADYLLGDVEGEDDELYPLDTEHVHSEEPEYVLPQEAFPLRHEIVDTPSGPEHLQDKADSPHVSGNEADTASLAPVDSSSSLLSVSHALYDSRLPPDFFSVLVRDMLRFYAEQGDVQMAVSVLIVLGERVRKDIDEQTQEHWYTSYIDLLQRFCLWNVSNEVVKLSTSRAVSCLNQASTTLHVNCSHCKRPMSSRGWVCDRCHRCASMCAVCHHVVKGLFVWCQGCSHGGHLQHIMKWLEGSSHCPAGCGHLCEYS
# UniProt Q8CHH9: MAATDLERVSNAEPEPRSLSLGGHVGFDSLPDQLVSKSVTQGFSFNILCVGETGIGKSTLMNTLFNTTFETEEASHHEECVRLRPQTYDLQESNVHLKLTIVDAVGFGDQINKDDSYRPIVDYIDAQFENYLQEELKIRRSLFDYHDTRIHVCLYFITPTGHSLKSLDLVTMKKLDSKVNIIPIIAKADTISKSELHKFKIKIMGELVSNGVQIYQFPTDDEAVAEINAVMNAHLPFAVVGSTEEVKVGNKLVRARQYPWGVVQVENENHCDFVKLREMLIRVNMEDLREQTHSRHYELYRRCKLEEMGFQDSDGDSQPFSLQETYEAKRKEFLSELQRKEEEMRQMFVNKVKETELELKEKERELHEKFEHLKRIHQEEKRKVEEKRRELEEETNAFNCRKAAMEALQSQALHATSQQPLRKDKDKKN
# UniProt Q8JZZ7: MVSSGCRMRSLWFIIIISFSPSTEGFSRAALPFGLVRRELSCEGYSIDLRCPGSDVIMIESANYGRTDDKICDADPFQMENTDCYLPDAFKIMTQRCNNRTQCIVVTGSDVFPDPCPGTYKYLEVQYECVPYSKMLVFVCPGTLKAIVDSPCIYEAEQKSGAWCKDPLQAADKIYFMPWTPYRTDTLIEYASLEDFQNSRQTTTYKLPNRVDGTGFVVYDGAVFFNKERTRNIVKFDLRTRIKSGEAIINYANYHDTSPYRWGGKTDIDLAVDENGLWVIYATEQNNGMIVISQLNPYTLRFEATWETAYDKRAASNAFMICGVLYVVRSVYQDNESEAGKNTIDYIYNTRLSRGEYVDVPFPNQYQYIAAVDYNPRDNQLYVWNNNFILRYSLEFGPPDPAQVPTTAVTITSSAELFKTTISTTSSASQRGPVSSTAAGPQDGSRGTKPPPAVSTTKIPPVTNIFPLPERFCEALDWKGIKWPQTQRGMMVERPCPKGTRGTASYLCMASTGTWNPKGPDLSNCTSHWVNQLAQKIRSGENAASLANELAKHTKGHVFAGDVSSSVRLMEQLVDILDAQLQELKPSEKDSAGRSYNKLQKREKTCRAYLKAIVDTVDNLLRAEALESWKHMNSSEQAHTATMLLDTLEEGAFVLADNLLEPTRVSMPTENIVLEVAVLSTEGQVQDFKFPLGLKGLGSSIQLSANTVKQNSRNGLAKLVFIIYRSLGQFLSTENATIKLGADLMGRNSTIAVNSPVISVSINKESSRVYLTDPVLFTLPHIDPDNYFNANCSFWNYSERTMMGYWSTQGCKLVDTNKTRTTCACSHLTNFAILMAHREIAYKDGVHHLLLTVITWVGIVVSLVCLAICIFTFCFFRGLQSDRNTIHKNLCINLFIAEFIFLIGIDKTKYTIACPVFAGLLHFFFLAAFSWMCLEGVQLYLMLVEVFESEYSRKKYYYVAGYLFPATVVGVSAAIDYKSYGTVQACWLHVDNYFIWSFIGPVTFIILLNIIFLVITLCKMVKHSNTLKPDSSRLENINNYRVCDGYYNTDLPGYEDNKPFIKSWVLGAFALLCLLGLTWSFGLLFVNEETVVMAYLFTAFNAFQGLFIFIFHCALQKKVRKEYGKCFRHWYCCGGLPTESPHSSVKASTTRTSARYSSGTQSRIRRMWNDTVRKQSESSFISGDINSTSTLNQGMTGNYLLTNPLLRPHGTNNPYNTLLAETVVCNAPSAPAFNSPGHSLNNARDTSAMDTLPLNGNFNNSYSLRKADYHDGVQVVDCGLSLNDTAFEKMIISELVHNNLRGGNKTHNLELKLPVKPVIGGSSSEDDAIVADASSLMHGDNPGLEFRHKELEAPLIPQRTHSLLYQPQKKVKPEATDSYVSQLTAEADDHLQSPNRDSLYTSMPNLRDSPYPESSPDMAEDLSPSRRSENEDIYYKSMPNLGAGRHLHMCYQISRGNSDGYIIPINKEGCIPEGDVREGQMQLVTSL
# UniProt Q8CI04: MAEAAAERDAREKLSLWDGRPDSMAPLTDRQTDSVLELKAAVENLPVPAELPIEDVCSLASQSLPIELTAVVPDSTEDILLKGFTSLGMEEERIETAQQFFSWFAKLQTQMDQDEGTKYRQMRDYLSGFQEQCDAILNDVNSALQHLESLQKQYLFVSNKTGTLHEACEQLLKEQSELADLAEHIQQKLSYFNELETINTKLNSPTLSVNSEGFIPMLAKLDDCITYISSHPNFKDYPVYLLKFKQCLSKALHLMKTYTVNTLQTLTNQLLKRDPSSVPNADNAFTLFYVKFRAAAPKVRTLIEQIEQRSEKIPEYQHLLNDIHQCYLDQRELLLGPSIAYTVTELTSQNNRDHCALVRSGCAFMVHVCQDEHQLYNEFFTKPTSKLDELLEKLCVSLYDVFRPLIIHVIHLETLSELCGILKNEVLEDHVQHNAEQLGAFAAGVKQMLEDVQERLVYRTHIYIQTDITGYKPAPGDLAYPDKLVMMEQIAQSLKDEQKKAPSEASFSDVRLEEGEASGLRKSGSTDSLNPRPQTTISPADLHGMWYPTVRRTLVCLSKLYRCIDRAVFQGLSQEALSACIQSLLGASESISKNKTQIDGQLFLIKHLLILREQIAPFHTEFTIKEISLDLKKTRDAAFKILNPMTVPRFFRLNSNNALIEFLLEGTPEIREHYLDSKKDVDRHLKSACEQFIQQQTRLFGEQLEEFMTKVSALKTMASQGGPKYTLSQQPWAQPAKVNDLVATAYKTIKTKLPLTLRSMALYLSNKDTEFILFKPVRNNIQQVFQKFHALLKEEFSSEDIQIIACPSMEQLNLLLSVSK
# UniProt Q8CIV8: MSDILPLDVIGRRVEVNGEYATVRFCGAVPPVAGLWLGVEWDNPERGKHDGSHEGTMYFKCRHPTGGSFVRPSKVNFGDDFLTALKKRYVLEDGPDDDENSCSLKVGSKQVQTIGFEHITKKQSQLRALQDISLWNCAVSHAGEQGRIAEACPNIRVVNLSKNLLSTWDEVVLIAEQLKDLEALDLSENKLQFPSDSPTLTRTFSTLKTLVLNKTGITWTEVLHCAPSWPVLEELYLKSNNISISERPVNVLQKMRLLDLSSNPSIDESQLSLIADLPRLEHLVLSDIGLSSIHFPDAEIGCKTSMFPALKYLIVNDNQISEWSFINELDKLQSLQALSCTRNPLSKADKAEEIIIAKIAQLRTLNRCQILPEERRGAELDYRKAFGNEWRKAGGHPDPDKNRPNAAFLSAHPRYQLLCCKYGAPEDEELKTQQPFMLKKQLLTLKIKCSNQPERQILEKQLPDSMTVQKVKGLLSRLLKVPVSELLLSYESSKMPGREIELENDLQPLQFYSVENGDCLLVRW
# UniProt Q8CIE0: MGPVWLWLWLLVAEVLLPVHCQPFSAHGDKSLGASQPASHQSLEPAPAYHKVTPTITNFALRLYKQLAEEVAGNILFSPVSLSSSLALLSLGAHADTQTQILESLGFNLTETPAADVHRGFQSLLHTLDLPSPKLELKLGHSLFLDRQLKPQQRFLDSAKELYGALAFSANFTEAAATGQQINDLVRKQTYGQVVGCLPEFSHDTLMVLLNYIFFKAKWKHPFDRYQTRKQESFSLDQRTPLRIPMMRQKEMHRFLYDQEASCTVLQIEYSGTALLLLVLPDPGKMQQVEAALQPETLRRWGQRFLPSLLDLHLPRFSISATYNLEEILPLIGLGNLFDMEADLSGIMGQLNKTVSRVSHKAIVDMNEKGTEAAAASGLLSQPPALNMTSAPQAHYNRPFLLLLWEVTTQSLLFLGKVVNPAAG
# UniProt Q8CGC6: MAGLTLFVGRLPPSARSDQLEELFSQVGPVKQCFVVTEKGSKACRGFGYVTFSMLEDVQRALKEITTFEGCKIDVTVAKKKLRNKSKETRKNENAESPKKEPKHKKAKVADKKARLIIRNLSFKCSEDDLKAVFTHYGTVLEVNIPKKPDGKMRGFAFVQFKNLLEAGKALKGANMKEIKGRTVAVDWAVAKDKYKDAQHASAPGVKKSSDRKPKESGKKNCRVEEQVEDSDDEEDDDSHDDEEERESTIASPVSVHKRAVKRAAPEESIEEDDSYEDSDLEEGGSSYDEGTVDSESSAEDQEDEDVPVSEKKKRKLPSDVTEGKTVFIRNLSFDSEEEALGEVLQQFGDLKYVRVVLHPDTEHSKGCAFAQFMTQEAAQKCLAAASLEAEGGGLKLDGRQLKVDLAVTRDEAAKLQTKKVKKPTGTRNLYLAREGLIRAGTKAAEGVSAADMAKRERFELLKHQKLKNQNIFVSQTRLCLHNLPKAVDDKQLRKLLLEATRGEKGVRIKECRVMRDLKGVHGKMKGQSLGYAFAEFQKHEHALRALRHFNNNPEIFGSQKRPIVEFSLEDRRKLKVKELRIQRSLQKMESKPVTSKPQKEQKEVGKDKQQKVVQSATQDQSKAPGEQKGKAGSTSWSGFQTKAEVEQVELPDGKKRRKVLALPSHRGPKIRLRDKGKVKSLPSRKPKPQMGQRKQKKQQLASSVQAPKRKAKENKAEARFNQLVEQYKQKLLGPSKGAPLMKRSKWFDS
# UniProt Q8CF02: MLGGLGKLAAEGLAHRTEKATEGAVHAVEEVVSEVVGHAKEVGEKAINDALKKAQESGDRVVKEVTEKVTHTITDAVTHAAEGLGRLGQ
# UniProt Q8CI15, whole entry: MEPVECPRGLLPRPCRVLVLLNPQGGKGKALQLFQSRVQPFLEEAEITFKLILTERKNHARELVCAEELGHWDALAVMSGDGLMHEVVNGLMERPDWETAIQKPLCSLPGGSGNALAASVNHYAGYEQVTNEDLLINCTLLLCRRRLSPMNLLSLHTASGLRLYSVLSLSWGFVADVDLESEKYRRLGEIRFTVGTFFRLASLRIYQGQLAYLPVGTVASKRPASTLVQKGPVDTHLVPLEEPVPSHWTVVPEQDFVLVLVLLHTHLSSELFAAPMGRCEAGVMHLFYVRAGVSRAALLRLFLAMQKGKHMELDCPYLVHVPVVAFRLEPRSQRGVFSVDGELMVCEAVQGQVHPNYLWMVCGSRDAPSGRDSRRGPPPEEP
# The list shows a part of the results. Most values lie at the level of the controls, where differences are scatter.
# Compound: CN[C@@H]1C[C@H]2O[C@@](C)([C@@H]1OC)n1c3ccccc3c3c4c(c5c6ccccc6n2c5c31)C(=O)NC4 [staurosporine]
# Test: log2 fold change of tryptic peptide abundance, ligand vs vehicle (limited proteolysis) (log2 ratio); higher = more trypsin-susceptible (destabilized)
# Conditions: ligand concentration: 20 uM; sample: mouse liver crude lysate; replicate design: treated separately
row,Target,log2 fold change
1,"UniProt Q8CHT1 (peptide sequence: SQNLKECFRVHK, peptide start residue: 678)",-0.723
2,"UniProt Q8JZS0 (peptide sequence: AIELLEKLQESGEVPVHK, peptide start residue: 32)",-0.239
3,"UniProt Q8CI03 (peptide sequence: AGQEPSVGAR, peptide start residue: 16)",-0.318
4,"UniProt Q8CI75 (peptide sequence: TFGDDKYSLAR, peptide start residue: 645)",0.41
5,"UniProt Q8CHP5 (peptide sequence: YIASTQRPDGTWRK, peptide start residue: 15)",-0.198
6,"UniProt Q8CGA0 (peptide sequence: ALVTLLDAK, peptide start residue: 112)",0.552
7,"UniProt Q8CHY3 (peptide sequence: SLHQYAAQR, peptide start residue: 476)",0.447
8,"UniProt Q8CFJ9 (peptide sequence: HPIFFKR, peptide start residue: 375)",-0.239
9,"UniProt Q8CHH9 (peptide sequence: ELHEKFEHLKR, peptide start residue: 365)",-0.106
10,"UniProt Q8CBC4 (peptide sequence: GEVAQMDSR, peptide start residue: 171)",0.289
11,"UniProt Q8K0F1 (peptide sequence: NIIQGRPLPAELR, peptide start residue: 38)",-0.379
12,"UniProt Q8JZZ7 (peptide sequence: GHVFAGDVSSSVR, peptide start residue: 556)",-0.359
13,"UniProt Q8K0V4 (peptide sequence: TWVASNEIK, peptide start residue: 64)",-0.215
14,"UniProt Q8CCA0 (peptide sequence: RPASGDDLSAK, peptide start residue: 68)",-0.407
15,"UniProt Q8CG46 (peptide sequence: SVSDHITR, peptide start residue: 437)",-0.531
16,"UniProt Q8CJ19 (peptide sequence: YESELMIFAR, peptide start residue: 1901)",-0.341

# Copied from the list.
# log2 fold change with UniProt Q8JZS0 (peptide sequence: AIELLEKLQESGEVPVHK, peptide start residue: 32) is entered as -0.239
# log2 fold change with UniProt Q8CHP5 (peptide sequence: YIASTQRPDGTWRK, peptide start residue: 15) is entered as -0.198

# The listing continues:

row,Target,log2 fold change
1,"UniProt Q8CI04 (peptide sequence: TKLPLTLR, peptide start residue: 751)",0.32
2,"UniProt Q8CIM3 (peptide sequence: GSCHIGGNVATNAGGLR, peptide start residue: 210)",-0.501
3,"UniProt Q8CCB4 (peptide sequence: IKQEIIKK, peptide start residue: 252)",-0.678
4,"UniProt Q8CIV8 (peptide sequence: NRPNAAFLSAHPR, peptide start residue: 402)",0.456
5,"UniProt Q8CIE0 (peptide sequence: KQESFSLDQR, peptide start residue: 230)",-0.194
6,"UniProt Q8K0T0 (peptide sequence: EQDSPPMKPGALDAIR, peptide start residue: 484)",0.291
7,"UniProt Q8CFE3 (peptide sequence: IQQMLPDK, peptide start residue: 211)",0.157
8,"UniProt Q8CGC6 (peptide sequence: KVLALPSHR, peptide start residue: 659)",-0.753
9,"UniProt Q8CCN5 (peptide sequence: QPMTLGTITK, peptide start residue: 534)",0.311
10,"UniProt Q8K0L3 (peptide sequence: SVTAPYKYPR, peptide start residue: 535)",0.247
11,"UniProt Q8JZQ2 (peptide sequence: MCMTLGGR, peptide start residue: 624)",0.171
12,"UniProt Q8CF02 (peptide sequence: ATEGAVHAVEEVVSEVVGHAK, peptide start residue: 20)",-0.202
13,"UniProt Q8CCJ9 (peptide sequence: KDQDQAVAEAERK, peptide start residue: 813)",0.893
14,"UniProt Q8CHR6 (peptide sequence: TGMCACHSPLPSIR, peptide start residue: 319)",-0.756
15,"UniProt Q8CI15 (peptide sequence: FTVGTFFR, peptide start residue: 192)",0.0788
